Patent US9056108B2, “Method of treating atrial fibrillation” (Gilead Sciences, Inc., priority 2009, dated 2015)
Entries after “also recorded” stand apart in the source; their conditions may differ. For at least one compound, name, drawing or mass did not settle the structure.

Legend:
[1] = test system: coronary-perfused canine left ventricular (LV) preparations; assay: Electrophysiology in isolated coronary-perfused canine left ventricular preparations; conditions: ranolazine 5 μM, dronedarone 10 μM; for Effect on Vmax in ventricles / Effect on conduction time in ventricles (duration of QRS complex): CL of 500 ms; for Effect on conduction time in ventricular myocardium: CL=300 ms; for Effect on DTE in ventricles: pacing CLs of 500 and 300 ms
Procedure: Experiments were performed using isolated coronary-perfused canine right atrial (RA) and left ventricular (LV) preparations (≈3×1.5×1 cm). Isolation and perfusion of the preparations were as previously described.^9, 15, 16 Briefly, preparations were dissected from hearts removed from anesthetized (sodium pentobarbital) adult mongrel dogs (20-30 kg). Unfolded RA with attached rim of the right ventricle was cannulated and perfused with cold cardioplegic solution (4-8° C.) through the ostium of the right coronary artery; the LV wedge was perfused through a diagonal branch of the left anterior descending coronary artery. Unperfused tissue was removed with a razor blade. Cut ventricular and atrial branches were ligated using silk thread. The preparations were then transferred to a temperature-controlled bath and arterially-perfused with Tyrode's solution by use of a roller pump. The composition of the Tyrode's solution was (in mM): NaCl 129, KCl 4, NaH2PO4 0.9, NaHCO3 20, CaCl2 1.8, MgSO4 0.5, and D-glucose 5.5, buffered with 95% O2 and 5% CO2 (37±0.5° C., pH=7.35)
Transmembrane action potential (AP) recordings were obtained using floating glass microelectrodes at a sampling rate of 40 kHz. A pseudo-electrocardiogram (ECG) was recorded using two electrodes consisting of Ag/AgCl half cells placed in the Tyrode's solution bathing the preparation, 1.0 to 1.5 cm from the two opposite sides of the atrial or ventricular coronary-perfused preparations. Conduction time was approximated by the duration of “P wave” in atria and “QRS complex” in ventricles, at a level representing 10% of “P wave” and “QRS” amplitude. Diastolic threshold of excitation (DTE) was determined by increasing stimulus intensity in 0.01 mA steps. Effective refractory period (ERP) was measured by delivering premature stimuli at progressively shorter S1-S2 intervals after every 10 basic beats at a pacing cycle length (CL) of 500 ms (5 ms steps; 2 times DTE). Post-repolarization refractoriness (PRR) was recognized when ERP exceeded action potential duration measured at 90% repolarization (APD90) in the ventricle and APD measured at 70% repolarization (APD70) in atria. Ventricular ERP was coincident with APD90, whereas atrial ERP was generally coincident with APD70-75.^9 The shortest S1-S1 permitting 1:1 activation was measured by progressively shortening pacing CL starting from a CL of 500 ms.
Stable AP recordings could not be readily obtained in the vigorously contracting perfused preparations. The largest recorded maximum rate of rise of the AP upstroke (Vmax) values per experimental condition were taken for statistical comparison. Only APs having amplitudes of at least 100 mV were considered in the analysis. The largest Vmax criterion was used because this was associated with the largest amplitude and the most negative resting membrane potential, depicting full or near full impalement. In determining use-dependent depression of Vmax, values were normalized to the Vmax value at a CL of 500 ms for each experiment and then averaged.
Because of their dependence on peak INa, Vmax, DTE, PRR, and conduction time as well the shortest S1-S1 interval permitting 1:1 activation are referred to as INa-dependent parameters.
The equilibration period for the coronary-perfused preparations was 30-120 min. The preparations were exposed to 5 μM ranolazine, 10 μM dronedarone (after 30 min washout of ranolazine), and the combination of these agents for at a period of at least 20 min. In time-control experiments, 20 minutes was sufficient to achieve steady-state in the effects of each of the drugs to alter electrophysiologic parameters. Recordings were obtained at a cycle length (CL) of 500 and 300 ms, unless otherwise indicated. […] When determining the shortest S1-S1 pacing rate permitting 1:1 activation, the stimulation intensity was DTE x 2, determined at a CL of 500 ms.

[2] = test system: spontaneous (intrinsic) atrial rate in guinea pig isolated hearts; assay: Spontaneous atrial rate in guinea pig isolated hearts; conditions: ranolazine 3 μM, dronedarone 0.3 μM
Source text: To perfuse the heart by the Langendorff method, the transected aorta was slid onto a glass cannula and secured by a ligature. […] To facilitate the exit of fluid from the left ventricle, the leaflets of the mitral valve were trimmed with fine spring-handled scissors. […] Experimental interventions were always preceded and followed by control measurements.

[3] = test system: rabbit isolated heart treated with acetylcholine; assay: Electrically-induced atrial fibrillation in rabbit isolated heart treated with acetylcholine; conditions: in presence of ACh
Procedure: Each rabbit was sedated using intramuscular injections of 6 mg/kg xylazine and 40 mg/kg ketamine and then anesthetized using a “cocktail” of ketamine (15 mg/kg)+xylazine (4 mg/kg) in 1.5 ml saline. The ketamine/xylazine cocktail was administered as an i.v. bolus via the marginal ear vein. After anesthesia was confirmed, the thorax was opened and the heart was quickly excised. The heart was placed in a modified Krebs-Henseleit (K-H) physiological saline solution at room temperature. The K-H solution contained (in mmol/L): NaCl 118, KCl 2.8, KH2PO4 1.2, CaCl2 2.5, MgSO4 0.5, pyruvate 2.0, glucose 5.5, Na2EDTA 0.57 and NaHCO3 25. The solution was continuously gassed with 95% O2 and 5% CO2, and its pH was adjusted to 7.4. The aorta was rapidly catheterized and the heart was perfused by the method of Langendorff with K-H solution warmed to 36-36.5° C. at a rate of 20 mL/min with a roller pump (Gilson Minipuls3, Middleton, Wis.). CPP was measured (with a Biopac MP 150 pressure transducer, Goleta, Calif.) from a side port of the aortic catheter. To facilitate exit of fluid from the chamber of the left ventricle (LV), the leaflets of the mitral valve were trimmed with fine spring-handled scissors. The right atrial wall was partially removed.
Premature programmed atrial electrical stimulation (i.e., an S1S2 protocol) caused non-sustained atrial fibrillation (AF) in 12 out of 12 (100%) hearts exposed to acetylcholine (0.6-1 μM) (FIGS. 21, 22). […] Dronedarone (0.3 μM) alone abolished the inducible AF only in 1 out of 5 hearts (FIG. 21, right panel).

patients with AF = conditions: cited from earlier work

Structure (SMILES)	Effect on APD90 / APD in ventricular preparations ([1]; CL 500 ms)	Effect on ventricular ERP ([1]; CL 500 ms)	Effect on Vmax in ventricles [1]	Effect on conduction time in ventricles (duration of QRS complex) [1]	Effect on conduction time in ventricular myocardium [1]	Effect on DTE in ventricles [1]	Effect on shortest S1-S1 interval permitting 1:1 activation in ventricles [1]	Effect on spontaneous atrial rate [2]	Abolition of inducible AF (hearts) ([3]; dronedarone 0.3 μM alone, flecainide positive control)	Rate of recurrence of AF (patients with AF; DIONYSOS trial, 6 months of follow-up) [%]	AF recurrence (patients) (patients with AF; combined EURIDIS and ADONIS trials, 1 year follow up, placebo 75%) [%]	Risk of recurrent atrial fibrillation (patients with AF; dronedarone 400 mg BID, patients with AF/AFL)	Efficacy and tolerability (patients with AF; dronedarone 600 mg BID and 800 mg BID, patients with AF/AFL)	Effect on APD50 in ventricles ([1]; CL 500 ms)	Inducibility/incidence of AF, ranolazine alone ([3]; ranolazine 10-30 μM)	Conversion rate (patients with AF; single high dose (2000 mg) pill-in-the-pocket) [%]	Termination of AF (patients) (patients with AF; single high dose (2000 mg), paroxysmal AF and structural heart disease)
CCCCc1oc2ccc(NS(C)(=O)=O)cc2c1C(=O)c1ccc(OCCCN(CCCC)CCCC)cc1 [Dronedarone, N-(2-Butyl-3-(p-(3-(dibutylamino)propoxy)benzoyl)-5-benzofuranyl)methanesulfonamide]	slightly prolonged APD, although without reaching statistical significance	not altered	not in ventricles	not altered significantly	neither agent causing a significant change	not significantly affected	not by dronedarone	small but not significant (p>0.05) decreases	1 out of 5	63	64	significant reduction in the risk of recurrent atrial fibrillation	not effective and were poorly tolerated				
COc1ccccc1OCC(O)CN1CCN(CC(=O)Nc2c(C)cccc2C)CC1 (racemic) [Ranolazine, (±)-N-(2,6-dimethylphenyl)-4-[2-hydroxy-3-(2-methoxyphenoxy)-propyl]-1-piperazineacetamide]	no statistically significant change	not altered	not in ventricles	not altered significantly	neither agent causing a significant change	not significantly affected	increased	small but not significant (p>0.05) decreases						not altered	decreased the inducibility of episodes of AF only at high concentrations of 10 and 30 μM; also recorded: decreased the incidence of AF	72	13 of 18
